# No constants are given. Whether binding was seen depends on the method and setting. In cells and extracts the contact can be indirect. These calls come from enrichment with a bait or labelling near it, and not all partners need be listed.
# Sequences of proteins named here, by UniProt entry; tags and fusion partners are left off. Residues count along the entry.
# UniProt P14625, residues 22-803: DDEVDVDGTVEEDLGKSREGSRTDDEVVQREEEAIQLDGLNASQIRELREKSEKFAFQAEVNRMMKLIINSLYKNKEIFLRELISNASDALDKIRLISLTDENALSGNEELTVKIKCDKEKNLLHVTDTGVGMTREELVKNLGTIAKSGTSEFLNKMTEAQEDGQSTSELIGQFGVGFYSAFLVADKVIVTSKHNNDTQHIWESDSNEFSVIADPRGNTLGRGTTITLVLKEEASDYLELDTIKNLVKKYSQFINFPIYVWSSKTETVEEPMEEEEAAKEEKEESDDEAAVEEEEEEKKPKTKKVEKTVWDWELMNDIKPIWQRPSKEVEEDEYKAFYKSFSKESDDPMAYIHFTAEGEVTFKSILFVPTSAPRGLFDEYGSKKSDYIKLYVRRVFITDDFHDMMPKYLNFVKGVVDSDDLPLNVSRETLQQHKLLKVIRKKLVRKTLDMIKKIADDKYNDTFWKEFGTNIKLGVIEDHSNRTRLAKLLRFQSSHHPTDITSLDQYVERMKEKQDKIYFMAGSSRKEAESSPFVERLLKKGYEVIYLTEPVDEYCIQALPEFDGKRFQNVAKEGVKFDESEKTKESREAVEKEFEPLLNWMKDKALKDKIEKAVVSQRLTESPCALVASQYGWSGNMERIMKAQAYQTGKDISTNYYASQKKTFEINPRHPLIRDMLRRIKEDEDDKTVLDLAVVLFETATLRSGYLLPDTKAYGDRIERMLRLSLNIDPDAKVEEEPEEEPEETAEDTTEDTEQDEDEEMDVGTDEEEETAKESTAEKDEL
# T1: ER-degradation enhancing α-mannosidase-like (EDEM1) (UniProt Q92611)
# T1 sequence: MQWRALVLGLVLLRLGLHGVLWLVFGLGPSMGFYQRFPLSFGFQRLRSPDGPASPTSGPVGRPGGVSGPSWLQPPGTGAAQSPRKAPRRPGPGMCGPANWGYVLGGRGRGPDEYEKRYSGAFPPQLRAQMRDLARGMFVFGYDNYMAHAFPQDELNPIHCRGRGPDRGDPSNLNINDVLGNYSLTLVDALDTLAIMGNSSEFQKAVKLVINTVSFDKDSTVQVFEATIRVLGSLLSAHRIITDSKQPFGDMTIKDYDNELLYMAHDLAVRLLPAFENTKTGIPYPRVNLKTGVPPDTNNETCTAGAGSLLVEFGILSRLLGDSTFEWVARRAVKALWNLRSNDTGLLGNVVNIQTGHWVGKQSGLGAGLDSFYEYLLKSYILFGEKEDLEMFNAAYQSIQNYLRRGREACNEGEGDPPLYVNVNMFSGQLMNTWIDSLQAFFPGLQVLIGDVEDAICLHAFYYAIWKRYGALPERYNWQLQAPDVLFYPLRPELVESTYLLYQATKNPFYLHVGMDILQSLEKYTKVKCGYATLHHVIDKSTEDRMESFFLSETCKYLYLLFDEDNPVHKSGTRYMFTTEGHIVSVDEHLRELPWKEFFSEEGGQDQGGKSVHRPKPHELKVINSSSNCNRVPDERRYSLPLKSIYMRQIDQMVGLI
# What was measured:
# [1] = target: T1, ER-degradation enhancing α-mannosidase-like (EDEM1); experiment: affinity purification with mass spectrometry; HEK293T overexpressing EDEM1 or ∆-EDEM1, lysed in Triton X-100 or Digitonin buffer; immunoprecipitation with rabbit anti-EDEM1 antibodies, LC-MS/MS; spectral counts after subtraction of the empty-vector control (Figure 3A)
# [2] = target: EDEM1 mutant lacking the IDR (∆-EDEM1); experiment: as above
# [3] = target: T1, ER-degradation enhancing α-mannosidase-like (EDEM1); experiment: affinity purification with mass spectrometry; HEK293T overexpressing EDEM1 or an empty vector, lysed in 1% Triton X-100 buffer; immunoprecipitation with anti-EDEM1 antibodies, SDS-PAGE, in-gel digestion, LC-MS/MS; LFQ values of three biological replicates, t-test with permutation-based FDR, hierarchical clustering of GO-selected proteins (Figure 1A,B)
binding [1],binding [2],binding [3],Molecule
binds,–,–,GRP94/HSP90B1 (from UniProt P14625 22-803)
binds,binds,–,"ERLIN2 (protein, UniProt O94905 1-339) MAQLGAVVAVASSFFCASLFSAVHKIEEGHIGVYYRGGALLTSTSGPGFHLMLPFITSYKSVQTTLQTDEVKNVPCGTSGGVMIYFDRIEVVNFLVPNAVYDIVKNYTADYDKALIFNKIHHELNQFCSVHTLQEVYIELFDQIDENLKLALQQDLTSMAPGLVIQAVRVTKPNIPEAIRRNYELMESEKTKLLIAAQKQKVVEKEAETERKKALIEAEKVAQVAEITYGQKVMEKETEKKISEIEDAAFLAREKAKADAECYTAMKIAEANKLKLTPEYLQLMKYKAIASNSKIYFGKDIPNMFMDSAGSVSKQFEGLADKLSFGLEDEPLETATKEN"
–,–,binds,"ERGIC53 (protein, UniProt P49257 31-510) DGVGGDPAVALPHRRFEYKYSFKGPHLVQSDGTVPFWAHAGNAIPSSDQIRVAPSLKSQRGSVWTKTKAAFENWEVEVTFRVTGRGRIGADGLAIWYAENQGLEGPVFGSADLWNGVGIFFDSFDNDGKKNNPAIVIIGNNGQIHYDHQNDGASQALASCQRDFRNKPYPVRAKITYYQNTLTVMINNGFTPDKNDYEFCAKVENMIIPAQGHFGISAATGGLADDHDVLSFLTFQLTEPGKEPPTPDKEISEKEKEKYQEEFEHFQQELDKKKEEFQKGHPDLQGQPAEEIFESVGDRELRQVFEGQNRIHLEIKQLNRQLDMILDEQRRYVSSLTEEISKRGAGMPGQHGQITQQELDTVVKTQHEILRQVNEMKNSMSETVRLVSGMQHPGSAGGVYETTQHFIDIKEHLHIVKRDIDNLVQRNMPSNEKPKCPELPPFPSCLSTVHFIIFVVVQTVLFIGYIMYRSQQEAAAKKFF"
binds,binds,binds,"ERdj5 (DNAJC10) (protein, UniProt Q8IXB1 33-793) DQDFYSLLGVSKTASSREIRQAFKKLALKLHPDKNPNNPNAHGDFLKINRAYEVLKDEDLRKKYDKYGEKGLEDNQGGQYESWNYYRYDFGIYDDDPEIITLERREFDAAVNSGELWFVNFYSPGCSHCHDLAPTWRDFAKEVDGLLRIGAVNCGDDRMLCRMKGVNSYPSLFIFRSGMAPVKYHGDRSKESLVSFAMQHVRSTVTELWTGNFVNSIQTAFAAGIGWLITFCSKGGDCLTSQTRLRLSGMLDGLVNVGWMDCATQDNLCKSLDITTSTTAYFPPGATLNNKEKNSILFLNSLDAKEIYLEVIHNLPDFELLSANTLEDRLAHHRWLLFFHFGKNENSNDPELKKLKTLLKNDHIQVGRFDCSSAPDICSNLYVFQPSLAVFKGQGTKEYEIHHGKKILYDILAFAKESVNSHVTTLGPQNFPANDKEPWLVDFFAPWCPPCRALLPELRRASNLLYGQLKFGTLDCTVHEGLCNMYNIQAYPTTVVFNQSNIHEYEGHHSAEQILEFIEDLMNPSVVSLTPTTFNELVTQRKHNEVWMVDFYSPWCHPCQVLMPEWKRMARTLTGLINVGSIDCQQYHSFCAQENVQRYPEIRFFPPKSNKAYHYHSYNGWNRDAYSLRIWGLGFLPQVSTDLTPQTFSEKVLQGKNHWVIDFYAPWCGPCQNFAPEFELLARMIKGKVKAGKVDCQAYAQTCQKAGIRAYPTVKFYFYERAKRNFQEEQINTRDAKAIAALISEKLETLRNQGKRNKDEL"
binds,binds,–,"ANKZF1 (protein, UniProt Q9H8Y5 1-726) MSPAPDAAPAPASISLFDLSADAPVFQGLSLVSHAPGEALARAPRTSCSGSGERESPERKLLQGPMDISEKLFCSTCDQTFQNHQEQREHYKLDWHRFNLKQRLKDKPLLSALDFEKQSSTGDLSSISGSEDSDSASEEDLQTLDRERATFEKLSRPPGFYPHRVLFQNAQGQFLYAYRCVLGPHQDPPEEAELLLQNLQSRGPRDCVVLMAAAGHFAGAIFQGREVVTHKTFHRYTVRAKRGTAQGLRDARGGPSHSAGANLRRYNEATLYKDVRDLLAGPSWAKALEEAGTILLRAPRSGRSLFFGGKGAPLQRGDPRLWDIPLATRRPTFQELQRVLHKLTTLHVYEEDPREAVRLHSPQTHWKTVREERKKPTEEEIRKICRDEKEALGQNEESPKQGSGSEGEDGFQVELELVELTVGTLDLCESEVLPKRRRRKRNKKEKSRDQEAGAHRTLLQQTQEEEPSTQSSQAVAAPLGPLLDEAKAPGQPELWNALLAACRAGDVGVLKLQLAPSPADPRVLSLLSAPLGSGGFTLLHAAAAAGRGSVVRLLLEAGADPTVQDSRARPPYTVAADKSTRNEFRRFMEKNPDAYDYNKAQVPGPLTPEMEARQATRKREQKAARRQREEQQQRQQEQEEREREEQRRFAALSDREKRALAAERRLAAQLGAPTSPIPDSAIVNTRRCWSCGASLQGLTPFHYLDFSFCSTRCLQDHRRQAGRPSS"
binds,binds,–,"ERLIN1 (protein, UniProt O75477 1-348) MNMTQARVLVAAVVGLVAVLLYASIHKIEEGHLAVYYRGGALLTSPSGPGYHIMLPFITTFRSVQTTLQTDEVKNVPCGTSGGVMIYIDRIEVVNMLAPYAVFDIVRNYTADYDKTLIFNKIHHELNQFCSAHTLQEVYIELFDQIDENLKQALQKDLNLMAPGLTIQAVRVTKPKIPEAIRRNFELMEAEKTKLLIAAQKQKVVEKEAETERKKAVIEAEKIAQVAKIRFQQKVMEKETEKRISEIEDAAFLAREKAKADAEYYAAHKYATSNKHKLTPEYLELKKYQAIASNSKIYFGSNIPNMFVDSSCALKYSDIRTGRESSLPSKEALEPSGENVIQNKESTG"
binds,binds,–,"XTP3-B (ERLEC1) (protein, UniProt Q96DZ1 34-483) LPQLSDDIPFRVNWPGTEFSLPTTGVLYKEDNYVIMTTAHKEKYKCILPLVTSGDEEEEKDYKGPNPRELLEPLFKQSSCSYRIESYWTYEVCHGKHIRQYHEEKETGQKINIHEYYLGNMLAKNLLFEKEREAEEKEKSNEIPTKNIEGQMTPYYPVGMGNGTPCSLKQNRPRSSTVMYICHPESKHEILSVAEVTTCEYEVVILTPLLCSHPKYRFRASPVNDIFCQSLPGSPFKPLTLRQLEQQEEILRVPFRRNKEEDLQSTKEERFPAIHKSIAIGSQPVLTVGTTHISKLTDDQLIKEFLSGSYCFRGGVGWWKYEFCYGKHVHQYHEDKDSGKTSVVVGTWNQEEHIEWAKKNTARAYHLQDDGTQTVRMVSHFYGNGDICDITDKPRQVTVKLKCKESDSPHAVTVYMLEPHSCQYILGVESPVICKILDTADENGLLSLPN"
